According to US20110014209A1:
These are yes or no findings as the source states them, for the method shown. Some binding calls cover weakened binding; strength is not graded here. Sequences can lack the tags named with a protein.

Target: T1, CD81 MBP-LEL (maltose-binding protein fused to the CD81 large extracellular loop, residues 113-201) (human) (UniProt P60033)
T1 sequence: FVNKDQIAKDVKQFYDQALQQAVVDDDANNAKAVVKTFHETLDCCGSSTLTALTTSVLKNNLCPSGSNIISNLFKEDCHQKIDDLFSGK
Assay: CD81 MBP-LEL ELISA, purified E2-his proteins, H53 detection

“E2Δ2-his mature protein (from UniProt P27958 384-661)” was tested, and the binding was “binds”.
